Data as given in PubChem BioAssay AID2685 (National Center for Advancing Translational Sciences (NCATS), 2010).
This is one part of the list. Further columns of the screen follow, without active or inactive calls. Compounds called inactive in the main read-out are mostly missing here. Words in brackets tell the shape of the fitted curve; partial curves, single points and poor fits give uncertain potencies.

Assay: qHTS Assay for Lipid Storage Modulators in Drosophila S3 Cells;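 on cell number change: cells counted by Cell Tracker Red CMTPX staining in the red channel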
Settings: BODIPY lipid droplet fluorescence, 18-24 h; for cell number change: measured here: cell count max response, cells fed with added oleic acid
In short: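 Laser-scanning cytometry quantifies lipid droplet accumulation (500–530 nm total intensity; droplet/cell object ratio) in oleic acid-fed (400 uM added) Drosophila S3 cells treated with a concentration series. 20 uM Triacsin C defined 100% inhibition.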

[1] = measured here: lipid fluorescence (Fed channel) AC50, cells fed with added oleic acid
[2] = measured here: cell number channel AC50, cells fed with added oleic acid

Row | SMILES | cell number change | AC50 [1] | AC50 [2]
1 | CC(=O)Nc1nc(C)c(-c2nc3ccc([N+](=O)[O-])cc3[nH]2)s1 | 14.9% | 6.51 µM [rising, partial curve, poor fit] | 
2 | CC1Cc2nc(SCC(=O)N3CCN(c4ccccc4)CC3)n(C)c(=O)c2S1 (centres undefined) |  | 0.58 µM [rising, single point] | 
3 | NC(=S)N/N=C/c1ccccc1OC(=O)c1cc2ccccc2oc1=O | 24.2% | 32.6 µM [falling, single point] | 
4 | Cc1ccccc1CS(=O)(=O)CC(O)CN1CCCC1=O (centres undefined) | -11.7% | 29.1 µM [rising, single point] | 
5 | Cc1ccc(NC(=O)c2ccc(Cl)c(NC(=O)c3cccs3)c2)cc1 |  | 32.6 µM [falling, single point] | 
6 | COc1ccccc1C1c2ccc3ccccc3c2Oc2ncn(CCN(C)C)c(=N)c21 (centres undefined) | -11.1% | 0.82 µM [falling, full curve] | 
7 | C=CCN1CCN(C(=O)c2cc3c(s2)CCCC3)CC1 | 38.4% | 13 µM [rising, partial curve, poor fit] | 16.4 µM [rising, partial curve, poor fit]
8 | Cc1cccc(NC(=O)CSc2nc3[nH]c(=O)cc(O)c3s2)c1 | -40.9% | 29.1 µM [falling, single point] | 23.1 µM [falling, single point]
9 | Cc1cc(O)c(C=Nc2ccc(N3CCOCC3)cc2)c(C)c1Cl | 16.4% | 29.1 µM [rising, single point] | 
10 | Cn1c(=O)c2c(nc(N3CCCCC3)n2C)n(C)c1=O | 86.9% | 16.4 µM [rising, partial curve] | 13 µM [rising, partial curve, poor fit]
11 | COc1ccc(NC(=O)CCc2nnc3ccc(N4CCC5(CC4)OCCO5)nn23)cc1 | -16.7% | 1.3 µM [falling, full curve] | 
12 | Cc1ccc(C)c(N2C(=O)c3cc(N4CCOCC4)c([N+](=O)[O-])cc3C2=O)c1 | -45.5% | 5.17 µM [falling, full curve] | 5.8 µM [falling, full curve]
13 | CCOC(=O)c1c(C)[nH]c(N=Nc2ccccc2)c1C |  | 0.82 µM [rising, full curve] | 0.651 µM [rising, partial curve]
14 | O=C(Cn1cc(C(=O)C2CC2)c2ccccc21)Nc1ccccc1Cl | 12.2% |  | 
15 | O=C(C1CCN(S(=O)(=O)c2ccccc2[N+](=O)[O-])CC1)N1CCOCC1 |  |  | 0.291 µM [falling, single point]
16 | N#Cc1c(N2C(=O)Nc3ccccc3N2O)sc2c1CCCCCC2 | 19.3% | 3.26 µM [rising, full curve, poor fit] | 
17 | CCOCCn1ccc2c(OCC(=O)NCCc3ccc(OC)c(OC)c3)cccc2c1=O | -50% | 29.1 µM [falling, single point] | 32.6 µM [falling, single point]
18 | CCc1cc(CNC(=O)c2cc(COc3ccc(C)nc3)on2)on1 | 13.9% | 29.1 µM [rising, single point] | 
19 | COC(=O)c1c(NC(=O)COC(=O)CNC(=O)c2ccco2)sc(C)c1C | 16.8% | 0.58 µM [rising, partial curve, poor fit] | 
20 | Cc1ccc(NC(=O)COc2ccc(C3SCCS3)cc2)cc1 | 15.7% | 29.1 µM [rising, single point] | 
21 | COn1c(SC2CCCCC2)nc2ccccc2c1=O | -1.9% | 32.6 µM [falling, single point] | 

Retrieved by compound from above, 2 records:
Row | SMILES | cell number change | AC50 [1] | AC50 [2]
16 | N#Cc1c(N2C(=O)Nc3ccccc3N2O)sc2c1CCCCCC2 | 19.3% | 3.26 µM [rising, full curve, poor fit] | 
13 | CCOC(=O)c1c(C)[nH]c(N=Nc2ccccc2)c1C |  | 0.82 µM [rising, full curve] | 0.651 µM [rising, partial curve]

Continued.

Row | SMILES | cell number change | AC50 [1] | AC50 [2]
22 | CC(=Nc1cccc(O)c1)c1sc2ccccc2c1O |  | 5.17 µM [falling, partial curve] | 5.8 µM [falling, partial curve]
23 | COc1ccc(Nc2cc(=O)oc3ccccc23)cc1 |  | 0.13 µM [falling, full curve, poor fit] | 
24 | CCC(=O)NC(c1ccccc1)c1c(O)ccc2ccccc12 (centres undefined) | 5.56% | 0.116 µM [rising, full curve, poor fit] | 
25 | COc1ccc(C2c3[nH]c4ccccc4c3C[C@H]3C(=O)N(CC(C)C)CC(=O)N23)c(OC)c1 (some centres undefined) | 9.92% | 6.51 µM [rising, single point] | 
26 | CCOC(=O)CSc1ncc(-c2cccc(Cl)c2)cn1 | -12.6% |  | 
27 | CCOC(=O)c1cc(COc2cc(Cl)cc(Cl)c2)on1 | -4.89% | 2.59 µM [falling, partial curve, poor fit] | 0.0058 µM [falling, full curve, poor fit]
28 | O=C(CN1C(=O)/C(=C/c2ccccc2F)Oc2ccccc21)N1CCN(c2ccccn2)CC1 | -27.9% | 0.92 µM [rising, full curve] | 
29 | Cc1ccc(NC(=O)c2cnccn2)cc1S(=O)(=O)N(C)C | 7.95% | 23.1 µM [rising, single point] | 
30 | CC(C)(C)c1ccc(OCC(=O)NCC(c2cccs2)N2CCOCC2)cc1 (centres undefined) | 76.3% |  | 23.1 µM [rising, partial curve]
31 | CN(Cc1ccccc1)c1ccc(C(=O)O)cc1[N+](=O)[O-] | 28.4% | 29.1 µM [rising, partial curve, poor fit] | 
32 | O=C(COC(=O)c1cccc(NS(=O)(=O)/C=C/c2ccccc2)c1)Nc1ccccc1OC(F)F | 32.6% | 3.66 µM [rising, partial curve] | 5.8 µM [rising, partial curve]
33 | CCNC(=O)COc1ccc(C=O)cc1OC | 12.7% |  | 0.00461 µM [rising, full curve, poor fit]
34 | CCCc1nnc(NC(=O)CCC(=O)N2CCN(CCn3c(C)ccc3C)CC2)s1 | -36.1% | 0.58 µM [falling, partial curve] | 2.06 µM [falling, partial curve]
35 | COc1ccccc1NC(=O)Nc1ccc(N2CCOCC2)cc1 |  | 0.0517 µM [falling, full curve, poor fit] | 
36 | Cc1nc2oc3ccccc3c(=O)c2cc1C(=O)O | 11.3% | 0.731 µM [rising, single point] | 
37 | Cc1ccc(OCCCC(=O)N2CCOCC2)c(C)c1 | -2.66% | 32.6 µM [rising, single point] | 
38 | Cc1c(CCC(=O)O)c(=O)oc2cc(OCc3cccc(Cl)c3)ccc12 | -10% | 0.00517 µM [falling, full curve, poor fit] | 
39 | COc1ccc(C2CC(=O)C=C(NNS(=O)(=O)c3ccc(C)cc3)C2)cc1 (centres undefined) | 23.1% | 5.8 µM [rising, partial curve] | 
40 | Cc1ccc2[nH]c3nc(N/N=C/c4cccc(O)c4)nnc3c2c1 | -27% | 1.3 µM [rising, full curve] | 
41 | Cc1sc2nc(CN(CCc3ccccc3)C(=O)c3ccco3)[nH]c(=O)c2c1C | -20.3% |  | 
42 | CCc1nn(CC(=O)NCCN2CCOCC2)c(=O)c2cc3c(OC)cccc3n12 | -1.83% |  | 

Row | SMILES | cell number change | AC50 [1] | AC50 [2]
43 | O=C(COc1ncnc2ccccc12)c1ccc(Cl)cc1 | -5.35% |  | 
44 | COc1ccc(CN2CCCC(C(=O)c3cccc(OC(C)C)c3)C2)cc1Cn1cccn1 (centres undefined) | 3.74% | 0.146 µM [falling, full curve, poor fit] | 
45 | O=C1c2ccccc2NC(c2cccnc2)N1c1ccccc1F (centres undefined) | 52.1% |  | 20.6 µM [rising, single point]
46 | CSc1ccc(C2CC(=O)Nc3c2c(=O)n(C)c(=O)n3C)cc1 (centres undefined) | 6.39% | 0.13 µM [falling, full curve, poor fit] | 
47 | N=C1/C(=C/c2cccn2-c2ccc([N+](=O)[O-])cc2)C(=O)N=C2SC=CN12 |  | 0.103 µM [rising, full curve] | 
48 | COc1ccc(CNC(=O)CCNC(=O)N2CCn3c2nc2ccccc23)cc1 | 15.6% |  | 
49 | CCc1nc2ccccc2c(C(=O)OC2CCCCC2=O)c1C (centres undefined) |  | 0.651 µM [rising, partial curve, poor fit] | 
50 | COc1ccccc1NC(=O)c1cc(N2C(=O)C3C4CCC(C4)C3C2=O)ccc1Cl (centres undefined) | -10.4% | 6.51 µM [falling, single point] | 
51 | COc1ccc(/C=N/n2c(-c3cccs3)n[nH]c2=S)cc1 | 16.1% | 29.1 µM [rising, single point] | 
52 | c1csc(CNc2ncnc3ccc(-c4ccc5c(c4)OCO5)cc23)c1 | -8.61% |  | 
53 | Cc1ccc(C(=O)NCCC(=O)NCc2cc(=O)n(C)c(=O)n2C)cc1 | 6.42% |  | 
54 | O=Cc1cnc(N2CCN(Cc3ccccc3)CC2)s1 | 17.7% |  | 
55 | O=C(NCc1ccccc1F)C1CCCN1S(=O)(=O)c1ccc(Cl)cc1 (centres undefined) | -26.5% | 25.9 µM [falling, single point] | 
56 | COc1cccc(C(=O)NCCCNC(=O)c2ccco2)c1 | 5.71% |  | 0.731 µM [rising, partial curve, poor fit]
57 | COc1ccc(OC)c(C(=O)c2ccc(C(=O)c3cc(OC)ccc3OC)cc2)c1 | 45.5% | 4.11 µM [rising, full curve] | 5.17 µM [rising, full curve]
58 | Cc1nnc(N/N=C/c2cccc(OCc3ccc(Cl)c(Cl)c3)c2)n1N | -23.2% |  | 
59 | CN(C)/C=C(\C=O)c1onc(-c2ccccc2Cl)c1C#N | 0.993% | 6.51 µM [falling, single point] | 
60 | O=C(O)/C=C/S(=O)(=O)c1ccc2ccccc2c1 | -25.9% | 1.3 µM [falling, full curve] | 4.11 µM [falling, full curve, poor fit]
61 | O=C(CCS(=O)(=O)c1ccccc1)Nc1ccc(N2CCOCC2)cc1 | -5.29% |  | 
